From article PMC3184153
The exact form of at least one protein or probe is not confirmed.

By UniProt entry, the sequences of proteins in these tests, tags left out. Where a name states a change or a piece, a line headed by the entry shows the natural chain unless it says otherwise.
UniProt Q7AKN0: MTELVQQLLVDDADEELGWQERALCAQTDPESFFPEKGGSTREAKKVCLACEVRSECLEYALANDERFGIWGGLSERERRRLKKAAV

Molecular target: apo-WhiB (Streptomyces coelicolor) (UniProt Q7AKN0)
Experiment: EMSA
Settings: apo form (no Fe-S cluster), 0-9 uM WhiB, 20 ng DNA; Invitrogen fluorescence EMSA kit, BSA as non-specific competitor, room temperature 30 min, 6% polyacrylamide gel in 0.5x TBE; protein stock in 50 mM Tris, 100 mM NaCl; recombinant protein; residues 1-87; protein details: His6 (pET15b, pIJ6999); probe letters rebuilt from the primers and the genome

“TAGATATCCCATGCTCGGTGAGACCGACGACGAGGGCCGTCCGGTCGCGTACAACCGCGTCGCCGGTGTCCTGGTCACCGGGAACGAGGACGGTGCCCACCACGTCATCAGCGAGATCGGCGGCGGCCTCGCGGACATCGGCTACACCATTCCCGGCCAGGCCTGGACCTACTGGCACCTCGGCCCGGGACCCGGTCCGGACTTCCTCGACGACGAGCGCGGCCACGACTGGTCGGTCTCCACCGGCCGCGCCATGGCGTCCAATCTGGTGCACGCGGCGCGCGCCCTCGACGCGATGCCGCTCCCGGCCCCGCCGTCCTGATCCCGGACCTGCCCGCGCATGTCTGCCTGAGCCGATACGGGGCATTCGTGCACGAGCAATGACGTACGAAACGCATGAGGAGCTGAGGTCCCATATGTA (double strand) [dpsA promoter region]”: binds.
